Structures are written as SMILES. Out of some 1,400 compounds screened, about 140 (10%) were called active.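 How the source made its calls: active means Half-maximal inhibitory dose from the fit at or below ten times the top valid tested dose; inconclusive means Invalid fit, or flat curve showing 30 to 70% inhibition; inactive means the rest.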 The list shows a part of the results, in another mix than the full data. Potency and affinity values are given separately.

Sequences of proteins named here, by UniProt entry; tags and fusion partners are left off. Residues count along the entry.
UniProt Q9H3R0, 1-420 limits assumed: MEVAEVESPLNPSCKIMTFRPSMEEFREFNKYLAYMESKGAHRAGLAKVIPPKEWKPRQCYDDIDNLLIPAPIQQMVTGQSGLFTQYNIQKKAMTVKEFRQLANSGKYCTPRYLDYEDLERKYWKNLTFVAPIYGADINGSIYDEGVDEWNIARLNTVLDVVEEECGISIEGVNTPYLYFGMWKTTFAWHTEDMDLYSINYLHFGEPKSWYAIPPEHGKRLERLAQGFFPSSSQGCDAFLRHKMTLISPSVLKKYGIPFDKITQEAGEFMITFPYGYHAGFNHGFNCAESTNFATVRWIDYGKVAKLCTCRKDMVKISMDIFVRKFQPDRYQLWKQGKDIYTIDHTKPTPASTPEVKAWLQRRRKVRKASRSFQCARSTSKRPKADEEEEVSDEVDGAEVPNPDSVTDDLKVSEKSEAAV

The target of the experiment is Lysine-specific demethylase 4C (Homo sapiens) (UniProt Q9H3R0). The experiment is described as follows: inhibition of JMJD2C H3K9me3 demethylation – biochemical, DELFIA europium, cherry-picked samples, dose response (AID 488835).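 Further: signal is the H3K9me2 demethylation product detected by a dimethyl-specific antibody.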 As to conditions: GST-JMJD2C(1-420); at 6 µM (top of the series) unless noted.
Consider `CCCN(CC(=O)Nc1ccccc1C)C(=O)CCl`, for which the activity change, negative = inhibition is inactive: 1.8%.

Take `O=C(O)c1ccc2cc(-c3ccccc3)[nH]c2c1`: the activity change, negative = inhibition is inactive: 4.85%.

Consider `CC(=O)Nc1cc2c(cc1NC(=O)Cn1nc(-c3ccccc3)ccc1=O)OCCO2`, for which the activity change, negative = inhibition was inactive: -7.55%.

In the case of `COc1ccc(C(CNC(=O)c2oc3cc(Br)ccc3c2C)N2CCCCC2)cc1` (configuration not stated), the activity change, negative = inhibition was inactive: 1.37%.

For the molecule `COc1ccc(Br)cc1CN(C)CC(=O)NCc1ccc(F)cc1`, the activity change, negative = inhibition is inactive: -5.46%.

As for `Cn1c(=O)[nH]c(=O)c2c1nc(NCCCO)n2Cc1ccc(F)cc1`, the activity change, negative = inhibition is inactive: 3.15%.

With `CCCCN(C)C(=O)CCC(=O)NNc1nc2ccccc2c2nc(C)nn12`, the activity change, negative = inhibition was inactive: -5.21%.

Regarding `CCOCCCNC(=O)c1c[nH]c2ccc(C)cc2c1=O`, the activity change, negative = inhibition was inactive: -1.72%.

For the molecule `C=CCc1c(C)nc(SC(C)C)[nH]c1=O`, the activity change, negative = inhibition is inactive: 5.84%.

`O=C(N/N=C/c1ccc([N+](=O)[O-])o1)c1cn(-c2ccccc2)nc1-c1ccc(F)cc1`: the activity change, negative = inhibition is inactive: -0.632%.

Consider `O=C(c1ccsc1)N1CCN(C(=O)c2cccs2)CC1`, for which the activity change, negative = inhibition is inactive: 2.81%.

Consider `COc1ccc(S(=O)(=O)Nc2ccc3c(c2)C(=O)N([C@H](C)CO)C[C@H](C)[C@H](CN(C)Cc2ccc(C(=O)O)cc2)O3)cc1`, for which the activity change, negative = inhibition was inactive: 8.66%.

`COc1ccc(NC(=O)NCCCCc2ccccc2)c(OC)c1`: the activity change, negative = inhibition is inactive: -0.647%.

Regarding `CCc1ccc2oc(=O)cc(CN3CCOCC3)c2c1`, the activity change, negative = inhibition was inactive: 5.79%.

Turning to `COc1cccc(/C=C/C(=O)OCC(=O)Nc2cccc(S(=O)(=O)N(C)C)c2)c1`, the activity change, negative = inhibition is inactive: 5.47%.

For `CS(=O)(=O)c1ccccc1-c1csc(N2CCC(C(N)=O)CC2)n1`, the activity change, negative = inhibition was inactive: -1.15% [at 1.6 µM].

As for `CC(C)N(Cc1ccccc1)C(=O)COC(=O)c1ccc2c(c1)OCCO2`, the activity change, negative = inhibition is inactive: 8.53%.

For the molecule `Oc1ccccc1N1CCN(C(=S)NCc2ccccc2)CC1`, the activity change, negative = inhibition is inactive: 3.28%.

As to `CCC(C)(C)n1nnnc1CN1CCc2ccccc21`, the activity change, negative = inhibition is inactive: 2.23%.

For `CCOC(=O)C1=C(c2ccccc2)NC(=O)NC1c1ccc(O)c(OCC)c1` (configuration not stated), the activity change, negative = inhibition is inactive: 0.617%.

With `Nc1cc(OC(=O)c2ccccc2Br)nn1S(=O)(=O)c1ccccc1`, the activity change, negative = inhibition was inactive: 4.46%.

With `CN(CCCNC(=O)CSc1cc(=O)n(C)c2ccc(Cl)cc12)Cc1ccccc1`, the activity change, negative = inhibition was inactive: -0.557%.

As to `C=CCNC(=S)NNC(=O)COc1cccc(Cl)c1`, the activity change, negative = inhibition was inactive: 2.43%.

Turning to `Cc1ccc(NC(=O)COC(=O)c2ccco2)cc1S(=O)(=O)N1CCOCC1`, the activity change, negative = inhibition is inactive: -1.53%.

Turning to `CCn1c(SCC(=O)NCc2ccco2)nnc1-c1cccs1`, the activity change, negative = inhibition is inactive: -0.879%.

Turning to `O=C(NCc1nnc(SCC(=O)N2CCCCC2)o1)c1c(F)cccc1F`, the activity change, negative = inhibition was inactive: 3.3%.

`O=C1CC(N2CCC(O)(c3ccc(Cl)cc3)CC2)C(=O)N1Cc1ccc(N2CCCC2=O)cc1` (configuration not stated): the activity change, negative = inhibition was inactive: 11.4%.

Take `Cn1nc(NC(=O)C(C)(C)C)c2c(F)cccc21`: the activity change, negative = inhibition is inactive: 1.57%.

`CCCS(=O)(=O)N1CCN(S(=O)(=O)c2ccccc2[N+](=O)[O-])CC1`: the activity change, negative = inhibition is inactive: 9.99%.

Turning to `O=c1[nH]cnc2c1c(-c1ccccc1)cn2-c1ccccc1`, the activity change, negative = inhibition was inactive: 5.51%.

As to `Clc1cccc(Cl)c1Cn1c(-c2cccnc2Cl)nc2ccccc21`, the activity change, negative = inhibition was inactive: 5.67%.

With `CC(=O)C(Sc1nc(N2CCOCC2)nc(N2CCOCC2)n1)C(=O)Nc1ccccc1` (configuration not stated), the activity change, negative = inhibition is inactive: 3.53%.

For `COc1cc(S(=O)(=O)N(Cc2cccs2)CC2CCCO2)ccc1-n1cnnn1` (configuration not stated), the activity change, negative = inhibition is inactive: -8.7%.

Turning to `COc1ccc(OCC(=O)N2CCC3(CC2)CC(=O)c2ccccc2O3)cc1`, the activity change, negative = inhibition was inactive: 12.9%.

Regarding `NC(=O)COc1cccc2cccnc12`, the activity change, negative = inhibition was inactive: 3.24%.

For the molecule `COc1ccc(CCNC(=O)c2ccc3c(c2)NC(=O)C(N2CCOCC2)S3)cc1OC` (configuration not stated), the activity change, negative = inhibition was inactive: -0.672%.

Regarding `CC(C)NC(=O)Nc1cccc2c1O[C@H](CN(C)C(=O)NC1CCCCC1)[C@H](C)CN([C@H](C)CO)C2=O`, the activity change, negative = inhibition was inactive: -3.03%.

Turning to `O=C(Nc1cccc(Cl)c1)NC1CCN(C2CCCCC2)C1` (configuration not stated), the activity change, negative = inhibition is inactive: 4.68%.

For `Cc1ccc(S(=O)(=O)Nc2ccc3c(c2)C(=O)N([C@H](C)CO)C[C@H](C)[C@@H](CN(C)Cc2ccccc2)O3)cc1`, the activity change, negative = inhibition is inactive: 9.34%.

For the molecule `CSc1nc(N)nc2c1ncn2CC(=O)NCCNc1ccc([N+](=O)[O-])cn1`, the activity change, negative = inhibition was inactive: -0.036%.

On to `CNCCNC[C@H](Cc1cccc2ccccc12)NCCc1ccccc1`, for which the activity change, negative = inhibition was inactive: 0.39%.

Regarding `COc1ccccc1N1CCN(c2nc3c(C)cccn3c(=O)c2C=O)CC1`, the activity change, negative = inhibition is inactive: -0.776%.

As to `COC(=O)CSC1=C(C#N)C(c2ccsc2)CC(=O)N1` (configuration not stated), the activity change, negative = inhibition was inactive: -0.00107%.

As for `C/C(=N\NC(=O)c1ccncc1)c1ccc(N(C)C)cc1`, the activity change, negative = inhibition was inactive: 0.615%.

As to `CC[C@@H]1CCCCc2ccccc2[C@@H](C(=O)C[C@@H](O)CC(C)=O)OC1=O`, the activity change, negative = inhibition is inactive: 1.94%.

On to `Cc1ccc(NC2=NCC(=O)N2Cc2ccc3c(c2)OCO3)c(C)c1`, for which the activity change, negative = inhibition was inactive: -0.634%.

As for `CCCC(CCC)C(=O)Nc1cccc(-c2cn3c(n2)SCC3)c1`, the activity change, negative = inhibition is inactive: 8.47%.

On to `COc1cccc(NC(=O)N2CCN(c3cccc(C)c3)C(C)C2)c1` (configuration not stated), for which the activity change, negative = inhibition was inactive: 8.49%.

For the molecule `O=c1c(O)cccc2cc(O)c(O)c(O)c12`, the activity change, negative = inhibition was inactive: -50%.

Take `Fc1ccc(-c2csc(Nc3ccccn3)n2)cc1`: the activity change, negative = inhibition was inactive: -16.8%.

Turning to `O=C(Cc1sc(-c2ccccc2)nc1-c1ccccc1)Nc1ccccc1`, the activity change, negative = inhibition is inactive: 2.22%.

On to `COc1ccc(CC(=O)Nc2ccc(/C(C)=N/NC(=O)c3cccc([N+](=O)[O-])c3)cc2)cc1`, for which the activity change, negative = inhibition was inactive: -4.82%.

Consider `CCOc1cccc(C2C(C(=O)c3ccco3)=C(O)C(=O)N2Cc2ccncc2)c1` (configuration not stated), for which the activity change, negative = inhibition was inactive: -1.49%.

Turning to `O=C(CSc1nnc(CNC(=O)c2cccs2)o1)c1ccccc1`, the activity change, negative = inhibition was inactive: 3.92%.

As to `Cc1ccc(/C=N\NC(=O)c2cc([N+](=O)[O-])cc([N+](=O)[O-])c2)o1`, the activity change, negative = inhibition is inactive: 5.01%.

For `O=C(O)CCCNC(=O)c1cccc(C(=O)NCCCC(=O)O)n1`, the activity change, negative = inhibition was inactive: 0.42%.

For the molecule `O=[N+]([O-])c1ccccc1N/N=C\c1ccccc1Cl`, the activity change, negative = inhibition is inactive: -1.36%.

With `O=C(COC(=O)C1(c2ccccc2F)CCCC1)Nc1ncc(C(F)(F)F)cc1Cl`, the activity change, negative = inhibition was inactive: -1.64%.

Turning to `Cc1ccc(S(=O)(=O)N2[C@@H](c3ccc(Cl)c(Cl)c3)C(C(=O)O)=C[C@H]2C(C)(C)C)cc1`, the activity change, negative = inhibition is inactive: 0.0975%.

`CCCCNC(=O)OCCNC(=O)Oc1cccc(C)c1`: the activity change, negative = inhibition was inactive: 4.46%.

Turning to `Cc1ccc(OC(=O)c2ccc3nc(C)sc3c2)cc1`, the activity change, negative = inhibition was inactive: -0.0189%.

As to `COc1ccc(C)cc1NC(=O)CN(C)S(=O)(=O)c1ccc2c(c1)CC(C)N2C(C)=O` (configuration not stated), the activity change, negative = inhibition was inactive: -0.962%.

With `CNC(=O)C1=NCCCc2cc(OC)c(OC)cc21`, the activity change, negative = inhibition is inactive: 2.61%.

As to `Cc1cccc(C(=O)N/N=C/C(C)Cc2ccc3c(c2)OCO3)c1` (configuration not stated), the activity change, negative = inhibition is inactive: -0.865%.

In the case of `C[C@H]1CN([C@@H](C)CO)C(=O)Cc2cc(NS(=O)(=O)c3cccs3)ccc2O[C@H]1CN(C)S(=O)(=O)c1cn(C)cn1`, the activity change, negative = inhibition is inactive: 6.73%.

`Cc1nn(C)c(N)c1C(O)(c1nccn1C)C(F)(F)F` (configuration not stated): the activity change, negative = inhibition is inactive: -4.61%.

With `Cc1ccc(OCC(=O)Nc2ccccc2Sc2ccccc2)c([N+](=O)[O-])n1`, the activity change, negative = inhibition is inactive: -9.33%.

Consider `COc1cccc(CNC(=O)c2cc3c(cc2Cl)N2CCCCCC2=NS3(=O)=O)c1`, for which the activity change, negative = inhibition was inactive: 3.42%.

With `CC1(C)[N+]([O-])=C2C(=[N+]([O-])C1(C)C)c1ccccc1/C2=N\O`, the activity change, negative = inhibition is inactive: 4.53%.

With `CC1CCN(c2ccc3c(c2)S(=O)(=O)c2cccc(C(=O)NC4CC4)c2C3=O)CC1`, the activity change, negative = inhibition is inactive: 7.81%.

As to `Cc1ccc2c(c1)c1c3n2CCCNC3CCC1` (configuration not stated), the activity change, negative = inhibition was inactive: -1.03%.

On to `CC(C)(C)c1ccc(C(=O)N2CCC(C(=O)NCc3ccncc3)CC2)cc1`, for which the activity change, negative = inhibition is inactive: 1.33%.

As for `COc1cc2c(cc1OC)CN(C(=O)CSc1n[nH]c(N)n1)CC2`, the activity change, negative = inhibition is inactive: 1.23%.

Turning to `CC(=O)C[C@@H](O)CC(=O)[C@H]1OC(=O)[C@H](C)CCCCc2ccccc21`, the activity change, negative = inhibition was inactive: -11%.

`CC(NC(=O)CCC(=O)c1ccc(F)cc1)C1CC2CCC1C2` (configuration not stated): the activity change, negative = inhibition is inactive: -1.93%.

For the molecule `CCN1C(=O)C(CC(=O)Nc2ccc(OC)cc2)N(CCc2ccccc2F)C1=S` (configuration not stated), the activity change, negative = inhibition is inactive: -7.78%.

With `CC1(C)C2CCC1(CS(=O)(=O)N1CCN(c3ccccc3F)CC1)C(=O)C2` (configuration not stated), the activity change, negative = inhibition was inactive: 5.48%.

As for `O=C(Nc1cccc2ccccc12)OC1C=CS(=O)(=O)C1` (configuration not stated), the activity change, negative = inhibition is inactive: 3.86%.

Take `Cc1ccc(C(=O)N2CCN(c3ccc(Cl)cc3)CC2)cc1`: the activity change, negative = inhibition is inactive: 1.79%.

As to `COC(=O)[C@]1(Cc2ccccc2)N[C@H](CN(C)S(=O)(=O)c2ccc(F)cc2)[C@@H]2C(=O)N(Cc3ccccc3)C(=O)[C@@H]21`, the activity change, negative = inhibition was inactive: 0.316%.

As for `Cc1ccc2c(c1)C(=O)N1[C@H]3c4cc(Cl)ccc4OC[C@@H]3[C@H](c3ccccc3)[C@]1(C)C(=O)N2`, the activity change, negative = inhibition is inactive: 3.11%.

For the molecule `CCCCCCn1c(=O)[nH]c2nc3cc(N)ccc3nc2c1=O`, the activity change, negative = inhibition is inactive: -3.56% [at 1.6 µM].

For the molecule `Cc1ccc(CSc2ncnc3onc(C)c23)cc1`, the activity change, negative = inhibition is inactive: 1.62%.

Turning to `C[C@@H]1CCCCCCCCC(=O)OCCN(C(=O)OC(C)(C)C)[C@H](C)CCCCCCCCC(=O)OCCN(C(=O)OC(C)(C)C)[C@H](C)CCCCCCCCC(=O)OCCN1C(=O)OC(C)(C)C`, the activity change, negative = inhibition is inactive: 13.4%.

Consider `C[C@]12c3[nH]c4ccccc4c3CCN1C(=O)C(CC(=O)NCCN1CCOCC1)C[C@@H]2C(=O)N1CCCCC1` (some centres not stated), for which the activity change, negative = inhibition was inactive: -4.06%.

As to `COc1cccc(/C=C/C(=O)NCCc2ccc(OC)c(OC)c2)c1`, the activity change, negative = inhibition was inactive: -4.6%.

In the case of `COC(=O)C1=C(C)N(Cc2ccccc2)C(=NCCc2c[nH]c3ccccc23)N[C@H]1c1ccccc1`, the activity change, negative = inhibition was inactive: 1.9%.

The record behind these values is PubChem BioAssay AID488835 (Broad Institute, 2010).
